From patent publication US20260240828A1, “GLYCOSPHINGOLIPID BIOSYNTHESIS INHIBITORS FOR TREATMENT OF TUMOURS DEPENDENT ON THE ONCOGENE GOLPH3 AND ON ONCOGENES OF THE GOLPH3 CLUSTER” (Golgenia S.R.L., priority 2023, published 2026)
For at least one compound, name, drawing or mass did not settle the structure.

System: DU145
Assay: Chemoresistance: growth under adhesion with etoposide, p21 cell cycle arrest, DU145
Format: cell-based
Conditions: FIG. 2B
Procedure: Eliglustat alone has no effect.
The cells were treated with etoposide at a concentration ranging between 10 and 40 μM for 12-16 hours.
The p21 levels were determined by immunoblotting as cycle arrest index.

For O[C@@H](COc1cccc2ncccc12)CN1CCN([C@@H]2c3ccccc3[C@@H]3[C@H](c4ccccc42)C3(F)F)CC1 [zosuquidar], the “effect of co-treatment on resistance to etoposide” value was “same kind of result”.
